# The campaign covered roughly 300,000 compounds. About 5,400 (1.8%) were called active. The shares of active, inactive and inconclusive entries below differ from those in the screen. The call rests on the fitted dose curve; tested in HEK293 cells. Where the call is inconclusive, the potency comes from a doubtful curve fit.
# Assay: qHTS for inhibitors of binding or entry into cells for Marburg Virus
# Conditions: Marburg virus pseudotyped entry inhibition, cell reporter; activity change, negative = inhibition: at 37.8 µM (top of the series) unless noted
# On the % scale 0 is the no-effect control and ±100 the full control effect; potency means the concentration at half of the fitted maximal effect.
Compound,Potency,"activity change, negative = inhibition"
Cc1ccc(NS(=O)(=O)c2ccc(NC(=O)c3ccc(-c4ccccc4)cc3)cc2)c(C)c1,"inconclusive: 5.62 µM [inhibitor, full curve, poor fit]",–
N#C/C(=C/c1ccc(N2CCCCCC2)o1)c1ccc(Cl)cc1,"inconclusive: 29.1 µM [inhibitor, single point]",–
CC1=[N+](C)c2ccc3ccccc3c2C1(C)C,"inconclusive: 14.6 µM [inhibitor, partial curve, poor fit]",–
Cc1cc(Cl)ccc1NC(=S)NCc1ccccc1,–,inactive: -23.2%
Cc1ccc(C)c(S(=O)(=O)N2CCN(C(=O)[C@H](Cc3ccccc3)NC(=O)c3ccco3)CC2)c1,–,inactive: -26.8% [at 46.1 µM]
CC1(C)CC(=O)C2=C(C1)Nc1ccccc1NC2c1ccc2c(c1)OCO2 (configuration not stated),"inconclusive: 23.1 µM [activator, single point]",–
N#C/C(=C\c1ccc(F)cc1)c1nc(-c2ccco2)cs1,"inconclusive: 2 µM [activator, partial curve, poor fit]",–
CCOC(=O)C1=c2/c(=C/c3ccncc3)c(N)c(C(=O)OC)n2C(=O)C(c2ccncc2)S1 (configuration not stated),"inconclusive: 17.8 µM [inhibitor, single point]",–
NS(=O)(=O)c1ccc(N/C=C\C(=O)c2ccc3ccccc3c2)cc1,"inconclusive: 4.11 µM [activator, partial curve, poor fit]",–
NNC(=O)CNC(c1ccccc1)c1cc(Br)ccc1NC(=O)c1ccccc1Br (configuration not stated),"inconclusive: 0.517 µM [inhibitor, full curve, poor fit]",–
COc1ccc(Cn2c(-c3ccc(OC)c(O)c3)nc3ccccc32)cc1O,"inconclusive: 12.6 µM [inhibitor, partial curve, poor fit]",–
O=C(CC1Sc2ccccc2NC1=O)NCc1ccc(Cl)cc1 (configuration not stated),–,inactive: 0.528% [at 46.1 µM]
CS(=O)(=O)N1CCC(C(=O)Nc2ccc(OCc3ccccc3)cc2)CC1,–,inactive: -1.33%
Cn1c(/C=N/NC(=O)c2ccccc2)nc2ccccc21,"inconclusive: 29.1 µM [inhibitor, single point]",–
Cn1c(=S)c2[nH]c(SCCC(C)(C)C)nc2n(C)c1=O,"inconclusive: 0.0891 µM [inhibitor, full curve, poor fit]",–
O=C1C(Cl)=C(Nc2ccccc2O)C(=O)N1CCc1ccccc1,"inconclusive: 5.62 µM [activator, single point]",–
Cc1cc(C)cc(OCc2nnc(N)s2)c1,"inconclusive: 35.5 µM [activator, single point]",–
C=CCOc1ccc(CNn2c(C)n[nH]c2=S)cc1OC,–,inactive: 1.34%
COc1ccc(CCN(C)C(=O)c2cc(S(=O)(=O)N3CCCCCC3)ccc2OC)cc1OC,"inconclusive: 11.2 µM [inhibitor, partial curve, poor fit]",–
Cc1ccccc1OCC(=O)Nc1ccc2nc(SCC(=O)N3CCCC3)sc2c1,"inconclusive: 25.1 µM [inhibitor, single point]",–
O=C(NC1CCN(C(=O)Nc2ccccc2)CC1)C1CCCCC1,"inconclusive: 31.6 µM [activator, single point]",–

# Rewritten as tab-separated lines: entries from further up.
Compound	Potency	activity change, negative = inhibition
Cc1cc(Cl)ccc1NC(=S)NCc1ccccc1	–	inactive: -23.2%
Cc1ccc(C)c(S(=O)(=O)N2CCN(C(=O)[C@H](Cc3ccccc3)NC(=O)c3ccco3)CC2)c1	–	inactive: -26.8% [at 46.1 µM]
CC1(C)CC(=O)C2=C(C1)Nc1ccccc1NC2c1ccc2c(c1)OCO2 (configuration not stated)	inconclusive: 23.1 µM [activator, single point]	–

# Further structures.

Compound,Potency,"activity change, negative = inhibition"
COC(=O)c1ccc(NC(=O)c2ccc3nc(C)sc3c2)cc1,"inconclusive: 35.5 µM [inhibitor, single point]",–
CC(=O)Nc1ccc(OCC(O)Cn2cnc3ccccc32)cc1 (configuration not stated),–,inactive: -6.54% [at 46.1 µM]
Clc1cccc(CN2CCC(Cc3ccccc3)CC2)c1,–,inactive: -12.9%
CCC(Nc1ccc(-c2nc(-c3cccnc3)no2)cc1[N+](=O)[O-])c1ccccc1 (configuration not stated),–,inactive: -0.71% [at 46.1 µM]
N#CCCN(Cc1cccnc1)C(=O)Nc1ccc(Cl)c(Cl)c1,"inconclusive: 31.6 µM [inhibitor, single point]",–
O=C(c1cccc(S(=O)(=O)N2CCN(c3ccc(F)cc3)CC2)c1)N1CCCCCCC1,–,inactive: -19.5%
COc1ccc(CNC(=O)C(C#N)c2nc3ccccc3nc2N2CCN(C)CC2)cc1 (configuration not stated),"inconclusive: 35.5 µM [inhibitor, single point]",–
O=C(Nc1c(-c2ccccc2)nc2ccccn12)c1ccco1,–,inactive: -14.1%
COc1cc(OC)c(S(=O)(=O)NCc2ccco2)cc1S(=O)(=O)NCc1ccco1,inactive,–
NC(=O)Cn1nc(-c2ccccc2)nc1-c1ccccc1,–,inactive: 4.93%
CCOC(=O)c1c(-c2ccc(OC)c(OC)c2)csc1NC(=O)c1ccccc1F,–,inactive: 16.6% [at 46.1 µM]
COc1ccccc1Nc1nc(-c2ccccc2)c(CC(=O)O)s1,"inconclusive: 0.562 µM [inhibitor, full curve, poor fit]",–
CS(=O)(=O)N1CCC(C(=O)Nc2ccc3c(c2)OCO3)CC1,–,inactive: -9.07%
O=S(=O)(NCc1ccco1)c1ccc(Cl)cc1Cl,–,inactive: -17.7% [at 46.1 µM]
CP(=O)(COC(=O)c1ccccc1)COC(=O)c1ccccc1,"inconclusive: 20 µM [activator, single point]",–
Cc1c(/C=N/Nc2nc3ccccc3[nH]2)c2ccccc2n1C,"inconclusive: 17.8 µM [inhibitor, single point]",–
CCC(=O)Nc1ccc(/C(C)=N/NC(=O)c2c(-c3ccccc3Cl)noc2C)cc1,–,inactive: 23.8%
CSCc1ccc(C(=O)NCc2ccc(C)cc2)cc1,"inconclusive: 0.891 µM [activator, full curve, poor fit]",–
CCCCOCCO,–,inactive: -1.44% [at 46.1 µM]
Nc1cc(=O)nc(SCC(=O)Nc2ccccc2)n1CCc1ccccc1,–,inactive: -0.768% [at 46.1 µM]
CC(C)C(NC(=O)OCc1ccccc1)C(=O)OCC(=O)N1CCCCC1 (configuration not stated),"inconclusive: 2.82 µM [activator, partial curve]",–

# Source: PubChem BioAssay AID540276 (National Center for Advancing Translational Sciences (NCATS), 2011)
